One experiment deals with GST-HIPK2(FL) (UniProt Q9QZR5). As to the kind of experiment: pull-down; GST-fusion proteins purified from H1299 on glutathione sepharose beads as bait, incubated with 0.6 mg of telophase total cell extract (T-TCE) of HeLa cells in 50 mM Tris-HCl pH 7.5, 200 mM NaCl, 0.5% NP40; Western blot; only the target purified. On the technique in general: Immunoblotting shows a protein as a band on a membrane.

The chains behind the UniProt entries cited, without tags or fusion partners.
UniProt Q99816: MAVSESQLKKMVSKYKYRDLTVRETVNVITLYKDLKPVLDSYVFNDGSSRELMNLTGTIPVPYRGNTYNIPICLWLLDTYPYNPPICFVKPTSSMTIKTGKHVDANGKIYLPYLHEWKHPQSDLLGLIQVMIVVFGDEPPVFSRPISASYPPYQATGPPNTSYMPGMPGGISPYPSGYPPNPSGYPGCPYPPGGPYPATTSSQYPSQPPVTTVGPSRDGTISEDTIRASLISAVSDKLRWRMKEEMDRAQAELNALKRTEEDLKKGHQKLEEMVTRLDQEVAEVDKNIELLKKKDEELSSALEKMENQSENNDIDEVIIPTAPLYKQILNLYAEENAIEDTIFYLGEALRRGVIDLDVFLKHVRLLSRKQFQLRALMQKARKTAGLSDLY
UniProt Q8WUM4: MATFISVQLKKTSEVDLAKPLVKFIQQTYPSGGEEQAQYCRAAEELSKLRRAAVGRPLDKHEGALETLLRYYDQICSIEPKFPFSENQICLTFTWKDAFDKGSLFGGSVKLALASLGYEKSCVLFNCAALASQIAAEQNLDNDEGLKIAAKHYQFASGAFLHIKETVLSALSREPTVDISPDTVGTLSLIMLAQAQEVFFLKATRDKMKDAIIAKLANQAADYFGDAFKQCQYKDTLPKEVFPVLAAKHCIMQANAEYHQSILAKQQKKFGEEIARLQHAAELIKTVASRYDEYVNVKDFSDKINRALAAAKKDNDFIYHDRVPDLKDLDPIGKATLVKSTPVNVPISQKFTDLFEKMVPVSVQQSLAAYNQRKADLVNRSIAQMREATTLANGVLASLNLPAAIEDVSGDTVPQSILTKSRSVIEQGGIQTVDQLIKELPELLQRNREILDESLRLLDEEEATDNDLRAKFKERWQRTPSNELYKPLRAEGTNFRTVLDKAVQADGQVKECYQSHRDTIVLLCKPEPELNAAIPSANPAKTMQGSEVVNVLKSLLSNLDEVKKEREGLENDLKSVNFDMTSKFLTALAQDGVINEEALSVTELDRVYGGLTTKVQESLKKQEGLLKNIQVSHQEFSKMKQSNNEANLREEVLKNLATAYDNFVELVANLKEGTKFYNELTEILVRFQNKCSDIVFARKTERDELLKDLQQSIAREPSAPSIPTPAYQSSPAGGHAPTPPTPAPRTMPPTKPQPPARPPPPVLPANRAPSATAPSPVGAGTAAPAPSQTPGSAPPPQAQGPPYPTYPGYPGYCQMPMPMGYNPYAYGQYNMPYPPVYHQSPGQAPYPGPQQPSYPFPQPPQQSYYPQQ
UniProt Q96GD4: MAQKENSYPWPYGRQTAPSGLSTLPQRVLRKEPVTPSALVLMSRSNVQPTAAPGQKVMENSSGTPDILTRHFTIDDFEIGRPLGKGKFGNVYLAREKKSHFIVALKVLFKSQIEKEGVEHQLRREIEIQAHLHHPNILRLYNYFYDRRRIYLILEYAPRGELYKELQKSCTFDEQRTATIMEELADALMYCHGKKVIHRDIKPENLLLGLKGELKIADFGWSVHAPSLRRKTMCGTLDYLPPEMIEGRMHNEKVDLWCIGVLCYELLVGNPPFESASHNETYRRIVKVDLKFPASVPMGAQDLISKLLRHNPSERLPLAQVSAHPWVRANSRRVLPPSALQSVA

The next experiment concerns the target GFP-HIPK2 (UniProt Q9QZR5). Nature of the experiment: pull-down; GFP-HIPK2 held on anti-GFP Ab-sepharose beads (GFP-immunoprecipitation), incubated with recombinant GST-Aurora-B in 50 mM Tris-HCl pH 7.5 at 150 and 250 mM NaCl; Western blot; both purified.
Experiment [1] has as its target T1, GST-HIPK2 deletion mutant (1-845) (UniProt Q9QZR5).
T1 sequence: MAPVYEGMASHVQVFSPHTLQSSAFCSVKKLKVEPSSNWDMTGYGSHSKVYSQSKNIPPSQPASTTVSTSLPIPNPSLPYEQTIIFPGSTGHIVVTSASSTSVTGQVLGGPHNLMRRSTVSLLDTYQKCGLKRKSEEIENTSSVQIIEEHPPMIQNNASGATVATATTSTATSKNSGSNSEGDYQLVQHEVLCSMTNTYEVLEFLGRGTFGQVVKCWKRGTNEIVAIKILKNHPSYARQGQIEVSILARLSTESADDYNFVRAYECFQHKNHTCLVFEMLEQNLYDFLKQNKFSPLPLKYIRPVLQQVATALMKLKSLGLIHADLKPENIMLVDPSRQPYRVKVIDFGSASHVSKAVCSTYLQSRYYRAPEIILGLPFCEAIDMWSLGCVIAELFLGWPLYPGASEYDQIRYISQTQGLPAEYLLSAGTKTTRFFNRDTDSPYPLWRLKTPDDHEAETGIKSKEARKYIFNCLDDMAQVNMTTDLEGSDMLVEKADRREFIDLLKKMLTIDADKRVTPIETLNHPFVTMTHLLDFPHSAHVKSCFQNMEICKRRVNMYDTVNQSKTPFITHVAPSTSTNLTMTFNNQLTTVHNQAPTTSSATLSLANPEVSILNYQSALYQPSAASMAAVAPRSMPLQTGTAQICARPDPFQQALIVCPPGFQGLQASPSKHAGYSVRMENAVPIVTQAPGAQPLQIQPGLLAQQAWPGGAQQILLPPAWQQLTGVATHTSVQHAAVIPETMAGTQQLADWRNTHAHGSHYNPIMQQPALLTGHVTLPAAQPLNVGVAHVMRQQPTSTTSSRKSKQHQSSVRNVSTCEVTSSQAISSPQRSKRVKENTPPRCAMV
As to the kind of experiment: pull-down; GST-fusion proteins purified from H1299 on glutathione sepharose beads as bait, incubated with 0.6 mg of telophase total cell extract (T-TCE) of HeLa cells in 50 mM Tris-HCl pH 7.5, 200 mM NaCl, 0.5% NP40; Western blot; only the target purified.

Results are given in words; binding and its absence hold for the method and conditions named. For some of these results: In cells and extracts the contact can be indirect. Some entries that bind do so weakly or less than the wild type. For some of these results: Sequences can lack the tags named with a protein.

TSG101 (from UniProt Q99816 1-390): the binding entry in the experiment with GST-HIPK2(FL) is recorded as “no binding”.

As for ALIX (from UniProt Q8WUM4 1-868), the binding entry with GST-HIPK2(FL) is reported as “no binding”. Regarding “recombinant glutathione S-transferase (GST)-Aurora-B (from UniProt Q96GD4 1-344) (enzyme)”, in the experiment with GFP-HIPK2, the binding result was “no binding”.

Turning to “Aurora-B (from UniProt Q96GD4 1-344) (enzyme)”, the binding result in the experiment with GST-HIPK2(FL) is recorded as “no binding”.

B1: CEP55 (protein, UniProt Q53EZ4 1-464)
chain: MSSRSTKDLIKSKWGSKPSNSKSETTLEKLKGEIAHLKTSVDEITSGKGKLTDKERHRLLEKIRVLEAEKEKNAYQLTEKDKEIQRLRDQLKARYSTTTLLEQLEETTREGERREQVLKALSEEKDVLKQQLSAATSRIAELESKTNTLRLSQTVAPNCFNSSINNIHEMEIQLKDALEKNQQWLVYDQQREVYVKGLLAKIFELEKKTETAAHSLPQQTKKPESEGYLQEEKQKCYNDLLASAKKDLEVERQTITQLSFELSEFRRKYEETQKEVHNLNQLLYSQRRADVQHLEDDRHKTEKIQKLREENDIARGKLEEEKKRSEELLSQVQFLYTSLLKQQEEQTRVALLEQQMQACTLDFENEKLDRQHVQHQLHVILKELRKARNQITQLESLKQLHEFAITEPLVTFQGETENREKVAASPKSPTAALNESLVECPKCNIQYPATEHRDLLVHVEYCSK
Regarding B1, in the experiment with GST-HIPK2(FL), the binding entry is “no binding”.

B2: MgcRacGAP (protein, UniProt Q9H0H5 1-632)
chain: MDTMMLNVRNLFEQLVRRVEILSEGNEVQFIQLAKDFEDFRKKWQRTDHELGKYKDLLMKAETERSALDVKLKHARNQVDVEIKRRQRAEADCEKLERQIQLIREMLMCDTSGSIQLSEEQKSALAFLNRGQPSSSNAGNKRLSTIDESGSILSDISFDKTDESLDWDSSLVKTFKLKKREKRRSTSRQFVDGPPGPVKKTRSIGSAVDQGNESIVAKTTVTVPNDGGPIEAVSTIETVPYWTRSRRKTGTLQPWNSDSTLNSRQLEPRTETDSVGTPQSNGGMRLHDFVSKTVIKPESCVPCGKRIKFGKLSLKCRDCRVVSHPECRDRCPLPCIPTLIGTPVKIGEGMLADFVSQTSPMIPSIVVHCVNEIEQRGLTETGLYRISGCDRTVKELKEKFLRVKTVPLLSKVDDIHAICSLLKDFLRNLKEPLLTFRLNRAFMEAAEITDEDNSIAAMYQAVGELPQANRDTLAFLMIHLQRVAQSPHTKMDVANLAKVFGPTIVAHAVPNPDPVTMLQDIKRQPKVVERLLSLPLEYWSQFMMVEQENIDPLHVIENSNAFSTPQTPDIKVSLLGPVTTPEHQLLKTPSSSSLSQRVRSTLTKNTPRFGSKSKSATNLGRQGNFFASPMLK
For the molecule B2, the binding result in experiment [1] is given as “no binding”; with GST-HIPK2(FL), “binds”.
